Data published in paper PMC6748129.
No constants are given. Whether binding was seen depends on the method and setting. In cells and extracts the contact can be indirect. Some results given as binding are weak or reduced against the parent protein; the word gives no strength. For some of these results: Sequences can lack the tags named with a protein.

Sequences of proteins named here, by UniProt entry; tags and fusion partners are left off.
UniProt Q9UBN7: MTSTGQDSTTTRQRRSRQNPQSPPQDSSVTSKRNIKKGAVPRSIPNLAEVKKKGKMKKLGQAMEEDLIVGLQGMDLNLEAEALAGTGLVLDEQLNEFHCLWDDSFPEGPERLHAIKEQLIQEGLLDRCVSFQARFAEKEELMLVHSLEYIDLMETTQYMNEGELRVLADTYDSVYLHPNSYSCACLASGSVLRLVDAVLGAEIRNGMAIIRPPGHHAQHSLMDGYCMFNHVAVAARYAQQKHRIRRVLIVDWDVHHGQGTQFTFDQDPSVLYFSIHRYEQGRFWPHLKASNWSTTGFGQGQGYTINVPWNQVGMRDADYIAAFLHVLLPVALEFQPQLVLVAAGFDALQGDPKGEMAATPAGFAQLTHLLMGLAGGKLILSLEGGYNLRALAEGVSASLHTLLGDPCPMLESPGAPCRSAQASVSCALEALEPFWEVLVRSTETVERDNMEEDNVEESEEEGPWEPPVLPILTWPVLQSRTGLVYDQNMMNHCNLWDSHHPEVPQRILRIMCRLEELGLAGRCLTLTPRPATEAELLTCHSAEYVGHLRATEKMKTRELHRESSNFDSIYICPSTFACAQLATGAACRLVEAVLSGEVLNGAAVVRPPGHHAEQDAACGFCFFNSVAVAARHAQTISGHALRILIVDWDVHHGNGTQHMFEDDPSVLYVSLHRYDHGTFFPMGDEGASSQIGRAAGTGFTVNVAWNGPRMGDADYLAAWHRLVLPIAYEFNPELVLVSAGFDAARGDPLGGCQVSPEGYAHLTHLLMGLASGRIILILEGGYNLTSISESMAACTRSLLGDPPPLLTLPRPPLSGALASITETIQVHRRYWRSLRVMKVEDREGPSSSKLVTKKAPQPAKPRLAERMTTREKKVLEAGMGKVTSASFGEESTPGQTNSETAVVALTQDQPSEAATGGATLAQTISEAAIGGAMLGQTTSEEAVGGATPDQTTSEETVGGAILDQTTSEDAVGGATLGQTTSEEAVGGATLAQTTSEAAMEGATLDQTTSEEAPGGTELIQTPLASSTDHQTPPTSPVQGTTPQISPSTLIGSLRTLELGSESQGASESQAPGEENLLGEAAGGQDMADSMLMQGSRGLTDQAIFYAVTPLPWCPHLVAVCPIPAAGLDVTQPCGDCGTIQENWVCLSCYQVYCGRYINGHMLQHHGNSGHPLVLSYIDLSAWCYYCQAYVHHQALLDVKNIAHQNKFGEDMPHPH

Experiments:
[1] = biological target: T1, endogenous RASSF1A (HeLa) (human (endogenous in HeLa)) (UniProt Q9NS23); experiment: co-IP; HeLa cells transiently overexpressing Flag-HDAC6; endogenous RASSF1A precipitated; immunoblot
T1 sequence: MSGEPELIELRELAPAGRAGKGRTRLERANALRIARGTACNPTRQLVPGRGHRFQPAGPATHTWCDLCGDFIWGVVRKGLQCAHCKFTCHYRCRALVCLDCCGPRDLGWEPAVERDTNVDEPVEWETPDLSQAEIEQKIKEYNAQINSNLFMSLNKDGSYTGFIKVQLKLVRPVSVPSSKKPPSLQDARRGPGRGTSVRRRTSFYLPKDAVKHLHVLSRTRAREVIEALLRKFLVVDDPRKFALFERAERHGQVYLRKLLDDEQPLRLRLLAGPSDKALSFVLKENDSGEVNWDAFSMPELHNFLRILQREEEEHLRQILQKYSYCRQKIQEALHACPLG

HA-RASSF1A (human) [2] = biological target: T2, HA-RASSF1A (human) (UniProt Q9NS23); experiment: co-IP; lysates of 293T cells transiently expressing both tagged partners; immunoblot
T2 sequence: T1 sequence

[3] = biological target: T3, HA-MAP1S full length (human) (UniProt Q66K74); experiment: co-IP; Fig. 7c-g; cells and tags not told in the legend; immunoblot
T3 sequence: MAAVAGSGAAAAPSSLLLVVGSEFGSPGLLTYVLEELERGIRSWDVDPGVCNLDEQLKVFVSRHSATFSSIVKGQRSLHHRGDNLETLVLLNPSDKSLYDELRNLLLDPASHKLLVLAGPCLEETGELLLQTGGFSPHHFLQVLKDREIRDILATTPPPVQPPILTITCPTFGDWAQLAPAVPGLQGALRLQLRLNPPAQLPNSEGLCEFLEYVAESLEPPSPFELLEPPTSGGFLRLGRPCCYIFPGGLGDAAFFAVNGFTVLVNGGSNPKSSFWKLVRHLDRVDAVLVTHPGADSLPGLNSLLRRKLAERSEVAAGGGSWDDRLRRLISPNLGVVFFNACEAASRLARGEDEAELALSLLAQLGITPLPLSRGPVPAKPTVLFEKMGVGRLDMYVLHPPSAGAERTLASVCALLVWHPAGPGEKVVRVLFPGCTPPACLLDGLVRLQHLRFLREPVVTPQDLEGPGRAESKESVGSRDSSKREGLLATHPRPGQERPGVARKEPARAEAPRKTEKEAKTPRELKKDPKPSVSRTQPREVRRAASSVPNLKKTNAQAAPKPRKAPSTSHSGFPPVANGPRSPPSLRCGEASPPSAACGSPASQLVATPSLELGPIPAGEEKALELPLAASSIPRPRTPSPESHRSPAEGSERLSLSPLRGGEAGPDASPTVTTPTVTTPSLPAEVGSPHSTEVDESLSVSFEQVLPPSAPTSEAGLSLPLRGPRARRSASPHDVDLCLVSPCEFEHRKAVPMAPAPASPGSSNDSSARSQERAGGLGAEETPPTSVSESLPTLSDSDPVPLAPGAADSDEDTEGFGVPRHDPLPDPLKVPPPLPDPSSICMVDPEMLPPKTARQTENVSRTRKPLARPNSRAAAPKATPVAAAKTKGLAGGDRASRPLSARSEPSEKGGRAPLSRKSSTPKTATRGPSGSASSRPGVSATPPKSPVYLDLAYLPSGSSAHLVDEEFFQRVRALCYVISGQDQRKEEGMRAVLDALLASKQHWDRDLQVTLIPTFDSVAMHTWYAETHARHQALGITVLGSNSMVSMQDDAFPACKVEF

Flag-HDAC6 (in 293T) = Flag-HDAC6 (in 293T) (UniProt Q9UBN7); experiment: co-IP; lysates of 293T cells transiently expressing both tagged partners; immunoblot
[4] = biological target: T4, HA-HBD (R653-Q855 fragment of MAP1S) (human) (UniProt Q66K74); experiment: as above
T4 sequence: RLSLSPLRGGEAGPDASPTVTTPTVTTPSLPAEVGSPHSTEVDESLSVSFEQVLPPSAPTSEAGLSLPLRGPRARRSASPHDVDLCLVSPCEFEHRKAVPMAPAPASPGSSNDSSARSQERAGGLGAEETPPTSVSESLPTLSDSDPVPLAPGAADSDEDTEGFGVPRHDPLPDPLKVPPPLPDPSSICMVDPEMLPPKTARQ

[5] = biological target: T3, HA-MAP1S full length (human); experiment: as above
[6] = biological target: HDAC6 (HeLa lysate, Fig. 6n) (UniProt Q9UBN7); experiment: co-IP; lysates of HeLa cells transiently expressing GFP fused RASSF1A constructs; HDAC6 precipitated; immunoblot
HA-RASSF1A (human) [7] = biological target: T2, HA-RASSF1A (human); experiment: co-IP; Fig. 7c-g; cells and tags not told in the legend; immunoblot
[8] = biological target: T5, endogenous MST1 (293T) (human (endogenous in 293T)) (UniProt Q13043); experiment: co-IP; lysates of 293T cells transiently expressing GFP-fused RASSF1A fragments; the other partner endogenous; immunoblot
T5 sequence: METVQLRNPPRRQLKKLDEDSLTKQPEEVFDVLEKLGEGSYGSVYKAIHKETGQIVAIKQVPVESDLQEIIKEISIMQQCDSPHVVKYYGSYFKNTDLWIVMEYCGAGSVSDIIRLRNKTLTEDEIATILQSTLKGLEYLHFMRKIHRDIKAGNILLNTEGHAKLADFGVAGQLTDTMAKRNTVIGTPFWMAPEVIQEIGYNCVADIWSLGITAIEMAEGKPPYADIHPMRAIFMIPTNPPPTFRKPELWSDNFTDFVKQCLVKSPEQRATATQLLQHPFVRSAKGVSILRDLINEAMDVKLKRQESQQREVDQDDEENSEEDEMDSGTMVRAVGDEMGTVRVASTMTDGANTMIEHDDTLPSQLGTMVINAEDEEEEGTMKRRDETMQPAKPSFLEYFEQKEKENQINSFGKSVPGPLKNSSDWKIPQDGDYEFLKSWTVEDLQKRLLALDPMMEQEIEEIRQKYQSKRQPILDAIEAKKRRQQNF

[9] = biological target: T6, endogenous MAP1S (293T) (human (endogenous in 293T)) (UniProt Q66K74); experiment: as above
T6 sequence: T3 sequence

**Q.** How did the binding [1] turn out when “Flag-HDAC6 (in HeLa) (from UniProt Q9UBN7 1-1215) (enzyme)” was run?
**A.** The binding was “binds”.

**Q.** Which binding (HA-RASSF1A (human) [2]) does the source give for “Flag-HDAC6 (in 293T) (from UniProt Q9UBN7 1-1215) (enzyme)” here?
**A.** The binding was “binds”.

B1: HA-RASSF1A (protein, UniProt Q9NS23-2 1-340)
chain: T1 sequence
**Q.** Which results are given for B1?
**A.** binding [3]: binds; binding (Flag-HDAC6 (in 293T)): binds; binding [4]: binds; binding [5]: binds

B2: HA-RASSF1A∆ (RASSF1A with the RA domain deleted) (protein, UniProt Q9NS23-2)
chain: MSGEPELIELRELAPAGRAGKGRTRLERANALRIARGTACNPTRQLVPGRGHRFQPAGPATHTWCDLCGDFIWGVVRKGLQCAHCKFTCHYRCRALVCLDCCGPRDLGWEPAVERDTNVDEPVEWETPDLSQAEIEQKIKEYNAQINSNLFMSLNKDGSYTGFIKVQLKLVRPVSVPSSKKPPSLQSGEVNWDAFSMPELHNFLRILQREEEEHLRQILQKYSYCRQKIQEALHACPLG
**Q.** B2 was tested. Which binding (Flag-HDAC6 (in 293T)) did it give?
**A.** The binding was “binds”.

**Q.** What about the binding [5] of the same molecule?
**A.** Its binding is “no binding”.

B3: GFP-fused RASSF1A fragment F1 (amino acids 1-151) (domain or fragment, UniProt Q9NS23-2 1-151)
chain: MSGEPELIELRELAPAGRAGKGRTRLERANALRIARGTACNPTRQLVPGRGHRFQPAGPATHTWCDLCGDFIWGVVRKGLQCAHCKFTCHYRCRALVCLDCCGPRDLGWEPAVERDTNVDEPVEWETPDLSQAEIEQKIKEYNAQINSNLF
**Q.** B3 was tested. Which binding [6] did it give?
**A.** Its binding is “binds”.

**Q.** How did the binding [6] turn out when MSLNKDGSYTGFIKVQLKLVRPVSVPSSKKPPSLQ (domain or fragment, UniProt Q9NS23-2 152-186) [GFP-fused RASSF1A fragment F2 (amino acids 152-186)] was run?
**A.** Its binding is “binds”.

B4: HA-HBD (R653-Q855 fragment of MAP1S) (domain or fragment, UniProt Q66K74 653-855)
chain: T4 sequence
**Q.** How did the binding (HA-RASSF1A (human) [7]) turn out when B4 was run?
**A.** The binding was “binds”.

B5: GFP-fused RASSF1A fragment F4 (SARAH domain, amino acids 288-340) (domain or fragment, UniProt Q9NS23-2 288-340)
chain: SGEVNWDAFSMPELHNFLRILQREEEEHLRQILQKYSYCRQKIQEALHACPLG
**Q.** For B5, which binding [8] is on record?
**A.** Its binding is “binds”.

B6: GFP-fused RASSF1A fragment F3 (RA domain, amino acids 187-287) (domain or fragment, UniProt Q9NS23-2 187-287)
chain: DARRGPGRGTSVRRRTSFYLPKDAVKHLHVLSRTRAREVIEALLRKFLVVDDPRKFALFERAERHGQVYLRKLLDDEQPLRLRLLAGPSDKALSFVLKEND
**Q.** With B6 as the molecule, how does the binding [9] read?
**A.** Its binding is “binds”.
